According to the supplement of paper PMC10849652:
Some of the results follow.

Protein sequences, listed by entry. Tags and fused reporters are not part of them. Lines headed by an entry give the natural chain unless they say otherwise; changes in a name come on top.
UniProt Q86VX2, whole entry, looked up: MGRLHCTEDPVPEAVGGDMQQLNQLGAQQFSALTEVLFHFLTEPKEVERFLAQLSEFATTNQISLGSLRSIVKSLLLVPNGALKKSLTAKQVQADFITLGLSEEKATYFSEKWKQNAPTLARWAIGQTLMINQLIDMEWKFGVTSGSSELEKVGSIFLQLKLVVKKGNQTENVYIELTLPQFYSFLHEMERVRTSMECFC
UniProt Q8N8Q8: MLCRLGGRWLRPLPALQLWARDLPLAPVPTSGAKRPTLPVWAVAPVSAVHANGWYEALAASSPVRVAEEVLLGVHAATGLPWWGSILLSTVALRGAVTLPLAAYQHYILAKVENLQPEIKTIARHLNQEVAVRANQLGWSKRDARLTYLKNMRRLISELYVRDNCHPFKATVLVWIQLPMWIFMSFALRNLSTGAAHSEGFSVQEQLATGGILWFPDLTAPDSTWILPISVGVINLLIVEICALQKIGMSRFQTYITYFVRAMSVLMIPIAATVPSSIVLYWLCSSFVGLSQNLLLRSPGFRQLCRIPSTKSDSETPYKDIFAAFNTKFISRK
UniProt A8TX70: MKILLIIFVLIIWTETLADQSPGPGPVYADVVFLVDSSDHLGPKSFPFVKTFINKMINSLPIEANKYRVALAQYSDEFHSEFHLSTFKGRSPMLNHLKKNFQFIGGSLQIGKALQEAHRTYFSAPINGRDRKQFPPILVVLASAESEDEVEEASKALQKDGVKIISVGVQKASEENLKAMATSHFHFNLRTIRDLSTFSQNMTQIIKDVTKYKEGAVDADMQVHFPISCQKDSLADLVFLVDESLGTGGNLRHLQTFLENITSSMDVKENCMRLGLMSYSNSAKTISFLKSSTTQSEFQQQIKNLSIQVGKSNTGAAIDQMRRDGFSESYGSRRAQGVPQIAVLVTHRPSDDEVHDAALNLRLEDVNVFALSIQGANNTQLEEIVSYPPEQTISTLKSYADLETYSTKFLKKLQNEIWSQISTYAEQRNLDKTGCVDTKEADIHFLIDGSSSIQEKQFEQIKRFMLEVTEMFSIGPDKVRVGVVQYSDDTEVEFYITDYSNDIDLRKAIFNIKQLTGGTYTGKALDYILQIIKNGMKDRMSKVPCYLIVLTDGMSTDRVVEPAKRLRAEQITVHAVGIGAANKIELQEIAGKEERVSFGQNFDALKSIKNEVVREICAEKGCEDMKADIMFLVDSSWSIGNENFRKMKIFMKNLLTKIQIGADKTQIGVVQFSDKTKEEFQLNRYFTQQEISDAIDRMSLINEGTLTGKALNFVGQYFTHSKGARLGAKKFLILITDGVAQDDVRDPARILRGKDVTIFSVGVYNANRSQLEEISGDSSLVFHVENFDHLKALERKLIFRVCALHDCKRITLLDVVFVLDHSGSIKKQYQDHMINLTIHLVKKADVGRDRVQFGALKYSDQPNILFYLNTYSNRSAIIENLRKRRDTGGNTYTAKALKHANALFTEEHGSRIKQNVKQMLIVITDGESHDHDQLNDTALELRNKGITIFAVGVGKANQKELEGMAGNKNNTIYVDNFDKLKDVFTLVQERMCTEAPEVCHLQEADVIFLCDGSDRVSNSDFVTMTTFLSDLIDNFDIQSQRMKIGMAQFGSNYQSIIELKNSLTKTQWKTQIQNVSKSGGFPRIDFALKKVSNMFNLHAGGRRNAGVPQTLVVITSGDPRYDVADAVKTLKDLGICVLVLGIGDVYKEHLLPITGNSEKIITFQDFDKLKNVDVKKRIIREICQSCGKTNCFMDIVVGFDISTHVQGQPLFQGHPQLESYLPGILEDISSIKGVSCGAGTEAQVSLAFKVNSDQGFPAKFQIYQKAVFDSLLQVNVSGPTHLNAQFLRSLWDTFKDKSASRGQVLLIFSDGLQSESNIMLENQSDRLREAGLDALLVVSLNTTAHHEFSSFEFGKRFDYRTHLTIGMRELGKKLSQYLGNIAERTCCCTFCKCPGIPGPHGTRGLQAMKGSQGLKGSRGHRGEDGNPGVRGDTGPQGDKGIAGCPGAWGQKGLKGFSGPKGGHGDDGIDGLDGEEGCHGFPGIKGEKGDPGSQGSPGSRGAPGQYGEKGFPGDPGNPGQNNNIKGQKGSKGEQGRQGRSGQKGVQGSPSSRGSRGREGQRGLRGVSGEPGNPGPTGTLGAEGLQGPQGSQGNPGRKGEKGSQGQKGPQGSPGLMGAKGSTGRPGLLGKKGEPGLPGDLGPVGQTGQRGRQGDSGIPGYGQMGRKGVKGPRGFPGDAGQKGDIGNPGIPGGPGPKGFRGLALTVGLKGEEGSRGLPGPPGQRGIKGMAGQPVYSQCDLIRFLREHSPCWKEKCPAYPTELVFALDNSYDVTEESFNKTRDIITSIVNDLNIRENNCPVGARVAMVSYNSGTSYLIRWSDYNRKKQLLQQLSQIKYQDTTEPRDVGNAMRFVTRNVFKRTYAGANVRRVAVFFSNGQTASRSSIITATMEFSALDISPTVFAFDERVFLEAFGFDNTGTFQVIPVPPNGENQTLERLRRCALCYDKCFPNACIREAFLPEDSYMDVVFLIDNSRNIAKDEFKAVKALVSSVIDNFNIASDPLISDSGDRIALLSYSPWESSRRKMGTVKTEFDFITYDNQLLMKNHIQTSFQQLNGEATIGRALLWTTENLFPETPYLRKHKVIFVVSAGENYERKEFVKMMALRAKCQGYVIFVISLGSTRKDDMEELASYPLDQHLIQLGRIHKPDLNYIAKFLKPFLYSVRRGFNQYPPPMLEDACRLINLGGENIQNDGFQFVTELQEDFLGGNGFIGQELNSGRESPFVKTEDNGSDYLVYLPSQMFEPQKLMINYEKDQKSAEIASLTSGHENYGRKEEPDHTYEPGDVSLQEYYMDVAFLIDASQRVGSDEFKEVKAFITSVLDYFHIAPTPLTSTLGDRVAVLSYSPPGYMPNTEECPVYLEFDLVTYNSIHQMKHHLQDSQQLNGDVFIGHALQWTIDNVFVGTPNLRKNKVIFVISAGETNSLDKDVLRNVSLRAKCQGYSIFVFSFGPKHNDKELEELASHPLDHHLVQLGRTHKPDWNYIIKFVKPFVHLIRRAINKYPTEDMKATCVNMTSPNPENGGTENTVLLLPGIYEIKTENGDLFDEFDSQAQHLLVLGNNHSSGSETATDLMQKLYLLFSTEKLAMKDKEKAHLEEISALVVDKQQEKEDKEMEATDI
UniProt Q9H0A8, whole entry, looked up: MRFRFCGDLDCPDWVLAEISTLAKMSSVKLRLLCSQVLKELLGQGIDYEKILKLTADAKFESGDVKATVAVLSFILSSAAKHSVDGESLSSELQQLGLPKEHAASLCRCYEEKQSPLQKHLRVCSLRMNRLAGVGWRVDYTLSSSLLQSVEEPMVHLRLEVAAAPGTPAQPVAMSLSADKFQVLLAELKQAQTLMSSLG
UniProt Q9BRF8, whole entry, looked up: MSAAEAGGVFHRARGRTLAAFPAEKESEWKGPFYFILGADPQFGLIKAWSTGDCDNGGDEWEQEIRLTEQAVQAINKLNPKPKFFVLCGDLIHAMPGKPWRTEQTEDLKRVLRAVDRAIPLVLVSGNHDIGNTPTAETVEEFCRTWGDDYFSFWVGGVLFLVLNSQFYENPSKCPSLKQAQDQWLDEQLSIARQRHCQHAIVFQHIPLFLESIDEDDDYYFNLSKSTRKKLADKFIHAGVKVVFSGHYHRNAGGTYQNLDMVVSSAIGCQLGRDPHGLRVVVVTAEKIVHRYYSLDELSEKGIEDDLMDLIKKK
UniProt P38432, whole entry, looked up: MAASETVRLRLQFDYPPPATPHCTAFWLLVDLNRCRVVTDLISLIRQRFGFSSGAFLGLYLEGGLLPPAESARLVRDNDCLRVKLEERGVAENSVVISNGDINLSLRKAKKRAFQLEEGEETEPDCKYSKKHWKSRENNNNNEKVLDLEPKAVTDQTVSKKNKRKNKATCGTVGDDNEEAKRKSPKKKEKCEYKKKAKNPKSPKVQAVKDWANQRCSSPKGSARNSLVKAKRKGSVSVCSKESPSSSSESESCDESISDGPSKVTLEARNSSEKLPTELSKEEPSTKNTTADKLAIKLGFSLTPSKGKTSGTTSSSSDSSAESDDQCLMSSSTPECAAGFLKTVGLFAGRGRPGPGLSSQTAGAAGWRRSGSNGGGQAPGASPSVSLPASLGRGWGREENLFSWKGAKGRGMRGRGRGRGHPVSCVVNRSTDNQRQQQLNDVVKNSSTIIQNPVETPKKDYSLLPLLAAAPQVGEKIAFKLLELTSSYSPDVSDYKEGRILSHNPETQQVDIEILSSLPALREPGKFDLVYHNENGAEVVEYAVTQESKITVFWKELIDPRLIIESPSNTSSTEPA
UniProt P61201: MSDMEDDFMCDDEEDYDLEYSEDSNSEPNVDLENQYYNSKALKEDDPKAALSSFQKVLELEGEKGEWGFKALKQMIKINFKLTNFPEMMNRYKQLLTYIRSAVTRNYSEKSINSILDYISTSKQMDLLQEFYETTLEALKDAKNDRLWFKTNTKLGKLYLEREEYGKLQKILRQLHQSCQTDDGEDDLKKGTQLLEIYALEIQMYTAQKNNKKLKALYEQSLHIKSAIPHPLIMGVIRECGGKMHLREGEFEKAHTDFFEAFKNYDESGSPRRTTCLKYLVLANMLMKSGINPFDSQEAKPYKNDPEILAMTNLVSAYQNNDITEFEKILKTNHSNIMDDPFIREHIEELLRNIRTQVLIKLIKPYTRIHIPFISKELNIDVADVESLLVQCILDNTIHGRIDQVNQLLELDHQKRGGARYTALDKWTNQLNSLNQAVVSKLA
UniProt P15954, whole entry, looked up: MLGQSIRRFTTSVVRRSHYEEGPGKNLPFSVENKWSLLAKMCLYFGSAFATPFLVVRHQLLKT
UniProt Q99829: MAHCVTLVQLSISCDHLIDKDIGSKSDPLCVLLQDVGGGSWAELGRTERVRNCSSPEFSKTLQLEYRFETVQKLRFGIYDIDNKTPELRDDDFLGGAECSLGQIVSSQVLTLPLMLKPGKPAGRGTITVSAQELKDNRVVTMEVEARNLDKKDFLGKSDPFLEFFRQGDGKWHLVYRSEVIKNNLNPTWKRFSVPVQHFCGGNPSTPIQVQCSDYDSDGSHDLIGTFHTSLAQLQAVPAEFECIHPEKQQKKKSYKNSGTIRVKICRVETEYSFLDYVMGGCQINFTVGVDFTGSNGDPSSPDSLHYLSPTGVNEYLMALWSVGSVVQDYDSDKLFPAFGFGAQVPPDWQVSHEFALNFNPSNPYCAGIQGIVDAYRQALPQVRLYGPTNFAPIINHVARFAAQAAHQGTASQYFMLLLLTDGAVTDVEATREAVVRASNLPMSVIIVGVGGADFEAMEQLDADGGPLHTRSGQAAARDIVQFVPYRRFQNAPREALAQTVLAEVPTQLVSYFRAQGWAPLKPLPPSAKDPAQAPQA
UniProt P51911: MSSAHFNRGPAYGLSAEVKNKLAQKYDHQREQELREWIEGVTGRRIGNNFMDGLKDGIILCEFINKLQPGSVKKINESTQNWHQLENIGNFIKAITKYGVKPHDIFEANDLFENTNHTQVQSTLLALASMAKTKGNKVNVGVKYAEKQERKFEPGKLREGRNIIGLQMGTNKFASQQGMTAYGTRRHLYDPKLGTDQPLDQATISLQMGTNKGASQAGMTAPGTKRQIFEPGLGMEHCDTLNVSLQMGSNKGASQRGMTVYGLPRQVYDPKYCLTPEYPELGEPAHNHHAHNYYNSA
UniProt Q92905, whole entry, looked up: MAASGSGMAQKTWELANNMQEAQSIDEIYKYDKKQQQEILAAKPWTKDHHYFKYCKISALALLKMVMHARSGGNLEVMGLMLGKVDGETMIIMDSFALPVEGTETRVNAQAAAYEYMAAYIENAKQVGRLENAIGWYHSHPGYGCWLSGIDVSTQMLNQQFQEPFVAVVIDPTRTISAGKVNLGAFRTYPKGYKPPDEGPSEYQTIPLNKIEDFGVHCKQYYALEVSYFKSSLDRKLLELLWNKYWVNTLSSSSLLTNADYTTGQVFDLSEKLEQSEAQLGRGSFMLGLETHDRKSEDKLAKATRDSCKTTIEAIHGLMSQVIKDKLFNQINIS
UniProt O95639, whole entry, looked up: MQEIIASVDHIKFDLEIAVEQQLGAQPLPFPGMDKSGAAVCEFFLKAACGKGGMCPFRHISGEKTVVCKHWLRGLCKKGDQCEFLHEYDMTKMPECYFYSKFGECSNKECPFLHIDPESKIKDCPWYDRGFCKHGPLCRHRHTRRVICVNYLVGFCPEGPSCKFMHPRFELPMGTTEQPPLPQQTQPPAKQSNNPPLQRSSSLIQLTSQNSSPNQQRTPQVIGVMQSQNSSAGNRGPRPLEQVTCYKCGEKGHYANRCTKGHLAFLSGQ
UniProt O14579: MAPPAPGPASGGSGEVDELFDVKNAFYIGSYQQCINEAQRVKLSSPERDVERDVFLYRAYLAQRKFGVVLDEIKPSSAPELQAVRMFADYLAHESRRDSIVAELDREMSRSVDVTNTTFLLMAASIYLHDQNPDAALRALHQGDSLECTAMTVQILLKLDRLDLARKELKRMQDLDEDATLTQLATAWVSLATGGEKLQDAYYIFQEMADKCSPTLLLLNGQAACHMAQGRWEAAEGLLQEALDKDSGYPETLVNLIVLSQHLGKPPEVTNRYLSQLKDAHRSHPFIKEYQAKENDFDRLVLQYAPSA

Key:
Assay in all cases: log2 fold change, soluble protein after heating vs DMSO (PISA); higher = thermal stabilisation; K562 lysate, 10 uM; active = over 0.2 and 3.5 SD of the protein, either way, in both replicates (recomputed)
[1] = compound: C1=CC=C(C=C1)[C@H](COC2=CC3=C(C=C2)NC(=O)N3)NC(=O)C4=CC=CN(C4=O)CC5=CC(=C(C=C5)F)F
How it was run: (§1)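 Values give the log-two fold change in thermal stability against solvent controls, from duplicates. Crude K562 extract at 1 mg/mL protein, made by dounce homogenisation in PBS pH 7.4 with 1 mM MgCl2, was treated with 10 μM compound for 30 min. After 3 min heating across 48°C-58°C, aliquots were pooled, adjusted to 0.5% NP-40 at 4°C and centrifuged at 21,000xg for 90 min. The supernatant was measured by TMTpro 16plex LC-MS/MS with channel sums equalised.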

[2] = compound: CC1=C(SC2=C1C(=N[C@H](C3=NN=C(N32)C)CC(=O)N)C4=CC=C(C=C4)Cl)C
How it was run: as §1

[3] = compound: CC1=C2C(=CC=C1)N=C(N(C2=O)C3=CC=CC=C3C)CN4C=NC5=C(N=CN=C54)N
How it was run: as §1

[4] = compound: Cc1sc2c(c1C)C(c1ccc(Cl)cc1)=N[C@@H](CC(=O)OC(C)(C)C)c1nnc(C)n1-2
How it was run: as §1

[5] = compound: c1ccc([C@@H]2C[C@H]2NC2CCNCC2)cc1
How it was run: as §1

Measured: log2 fold change

COMMD7 (UniProt Q86VX2)
inactive: [1] -0.001 | [2] -0.048 | [3] -0.004 | [4] 0.036 | [5] -0.064

CNOT2 (UniProt Q9NZN8)
inactive: [1] 0.019 | [2] -0.016 | [3] -0.019 | [4] -0.004 | [5] 0.008

COX18 (UniProt Q8N8Q8)
inactive: [1] -0.029 | [2] 0.024 | [3] -0.041 | [4] -0.015 | [5] 0.024

COQ7 (UniProt Q99807)
inactive: [1] 0.024 | [2] -0.014 | [3] 0.025 | [4] -0.052 | [5] 0.017

COL6A5 (UniProt A8TX70)
inactive: [1] 0.025 | [2] 0.052 | [3] 0.089 | [4] -0.061 | [5] -0.545

COG3 (UniProt Q96JB2)
inactive: [1] -0.03 | [2] -0.015 | [3] 0.016 | [4] 0.033 | [5] 0.019

CNOT11 (UniProt Q9UKZ1)
inactive: [1] 0.005 | [2] -0.097 | [3] 0.008 | [4] 0.001 | [5] -0.033

COMMD4 (UniProt Q9H0A8)
inactive: [1] -0.008 | [2] 0.008 | [3] -0.025 | [4] 0.004 | [5] 0.06

CPPED1 (UniProt Q9BRF8)
inactive: [1] -0.001 | [2] 0.022 | [3] -0.024 | [4] -0.076 | [5] -0.111

COIL (UniProt P38432)
inactive: [1] 0.103 | [2] 0.05 | [3] 0.051 | [4] 0.041 | [5] 0.052

COPS2 isoform 2 (UniProt P61201)
inactive: [1] -0.023 | [2] 0.005 | [3] -0.022 | [4] 0.024 | [5] 0.069

COPG2 (UniProt Q9UBF2)
inactive: [1] -0.025 | [2] 0.014 | [3] 0.008 | [4] 0.005 | [5] 0.022

CPD (UniProt O75976)
inactive: [1] 0.03 | [2] 0.012 | [3] 0.016 | [4] -0.074 | [5] -0.102

COX7C (UniProt P15954)
inactive: [1] -0.044 | [2] 0.09 | [3] 0.029 | [4] 0.127 | [5] 0.169

CPQ (UniProt Q9Y646)
inactive: [1] 0.025 | [2] 0.066 | [3] 0.05 | [4] -0.03 | [5] 0.01

CPNE1 (UniProt Q99829)
inactive: [1] -0.005 | [2] 0.048 | [3] -0.009 | [4] -0.043 | [5] -0.013

CNN1 (UniProt P51911)
inactive: [1] 0.019 | [2] -0.005 | [3] -0.019 | [4] -0.008 | [5] -0.02

COPS5 (UniProt Q92905)
inactive: [1] 0.009 | [2] -0.002 | [3] 0.004 | [4] -0.009 | [5] 0.04

CNOT9 (UniProt Q92600)
inactive: [1] 0.003 | [2] -0.005 | [3] 0.006 | [4] -0.023 | [5] 0.007

CPSF4 (UniProt O95639)
inactive: [1] -0.101 | [2] -0.018 | [3] 0.023 | [4] 0.039 | [5] 0.015

COPS4 (UniProt Q9BT78)
inactive: [1] -0.024 | [2] -0.083 | [3] -0.022 | [4] 0.005 | [5] 0.037

CNTRL (UniProt Q7Z7A1)
inactive: [1] 0.047 | [2] 0.018 | [3] 0.009 | [4] 0.021 | [5] -0.069

2 entries picked at random from the list so far, as already listed:
COPG2 (UniProt Q9UBF2)
inactive: [1] -0.025 | [2] 0.014 | [3] 0.008 | [4] 0.005 | [5] 0.022

COPS5 (UniProt Q92905)
inactive: [1] 0.009 | [2] -0.002 | [3] 0.004 | [4] -0.009 | [5] 0.04

The listing continues:

COPE (UniProt O14579)
inactive: [1] -0.021 | [2] -0.051 | [3] -0.001 | [4] -0.05 | [5] -0.084

CRABP2 (UniProt P29373)
inactive: [1] -0.057 | [2] -0.051 | [3] 0.055 | [4] -0.172 | [5] -0.001
